{"source": "patent US20170151264A1", "about": "“COMBINATION” (Almirall, S.A., priority 2014, published 2017)", "system": "autoantibody-mediated cutaneous lesions", "assay": "Immunization-induced mouse model of epidermolysis bullosa acquista (EBA)", "type": "in vivo, B6.SJL-H2s mice", "details": "6 week treatment; LAS191954 3 mg/kg/day or methylprednisolone 20 mg/kg/day orally", "experimental": "Induction of experimental EBA was performed as described in Iwata H, Bieber K, Tiburzy B et al., J Immunol. 2013; 191:2978-2988. Briefly, 6-10 week B6.SJL-H2s mice were immunized with an emulsion of a recombinant protein encompassing the vWFA2 binding domain of mouse type VII collagen (COL7) in adjuvant (Titermax). After immunization, mice were weekly evaluated for the presence and extend of clinical disease, measured as percentage of body surface affected by skin lesions (erythema, blisters, erosions and crusts).\nTreatments were carried out over a 6-week period, and mice were evaluated for the extend of clinical disease (primary endpoint) weekly. Clinical manifestations were scored 0 to 5, corresponding to 0%, <1%, ≧1% to <5%, ≧5% to <10%, ≧10% to <20% of body surface area affected, respectively. Area under Curve (AUC) was calculated from the score at inclusion, 1, 2, 3, 4, 5 and 6 weeks after allocation to treatment. For better comparability between experiments, the affected body surface area at weeks 1-6 was related to that at inclusion (set at 1).\nBody weight was monitored weekly during treatment.", "note": "For at least one compound, name, drawing or mass did not settle the structure.", "data": [{"smiles": "C[C@H]1C[C@@H]2[C@H]([C@@H](O)C[C@@]3(C)[C@H]2CC[C@]3(O)C(=O)CO)[C@@]2(C)C=CC(=O)C=C12", "note": "[Methylprednisolone, reference compound]", "values": [{"measurement": "clinical severity (body surface area affected by skin lesions relative to inclusion) versus vehicle", "value": "modestly reduced clinical severity"}]}]}
